Source: patent US20240068004A1 (MBRACE THERAPEUTICS, published 2024)
These are yes or no findings as the source states them, for the method shown. In cells and extracts the contact can be indirect. Some binding calls cover weakened binding; strength is not graded here. Blank lines part the entries; values can stand above or below the binder they belong to.

By UniProt entry, the sequences of proteins in these tests, tags left out. Residues count along the entry.
UniProt G3I8R9, residues 19-654: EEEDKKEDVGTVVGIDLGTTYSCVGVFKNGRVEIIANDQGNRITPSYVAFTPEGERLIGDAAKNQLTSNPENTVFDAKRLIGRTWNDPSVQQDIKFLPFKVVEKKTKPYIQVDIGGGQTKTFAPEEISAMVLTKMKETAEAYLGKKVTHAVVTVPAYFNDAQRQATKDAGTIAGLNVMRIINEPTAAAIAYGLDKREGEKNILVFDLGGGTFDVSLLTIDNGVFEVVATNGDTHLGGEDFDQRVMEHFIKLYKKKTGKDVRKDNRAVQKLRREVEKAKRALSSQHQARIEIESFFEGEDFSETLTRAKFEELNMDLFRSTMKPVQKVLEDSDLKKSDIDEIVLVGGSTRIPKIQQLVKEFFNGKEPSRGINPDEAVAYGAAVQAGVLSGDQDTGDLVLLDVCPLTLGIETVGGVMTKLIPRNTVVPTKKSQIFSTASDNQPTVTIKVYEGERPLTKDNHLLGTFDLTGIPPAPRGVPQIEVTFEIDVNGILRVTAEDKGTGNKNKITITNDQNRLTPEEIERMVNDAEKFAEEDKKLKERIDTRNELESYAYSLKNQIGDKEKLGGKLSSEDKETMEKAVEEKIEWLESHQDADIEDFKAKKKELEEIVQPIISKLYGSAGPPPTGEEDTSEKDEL

Target: native GRP78 of the CHO production cells (endoplasmic reticulum protein) (Chinese hamster (CHO cells)) (UniProt G3I8R9)
Assay: co-purification (co-immunoprecipitation) from CHO supernatant, SDS-PAGE

binding: binds
B1: anti-GRP78 antibody clone B4 (antibody, IgG1, V domains shown)
VH: QVRLQESGPGLVKPSQTLSLTCTVSGGSISSGGYYWSWIRQHPGKGLEWIGYIYYSGSTYYNPSLESRVTISVDTSKNQFSLKLSSVTAADTAVYYCARYSSIDAFEIWGQGTMVTVSS
VL: SYVLTQPPSVSVAPGKTATITCGGDDIGSKSVHWYQQKPGQAPVLVVYDDGDRPSGIPERFSGSNSGNTATLAISRVEAGDEADYYCQVWDSSSDQYVFGSGTKLTVL
notes: Fully human mAb formatted as full-length IgG1; also called B4 mAb

binding: binds
B2: anti-GRP78 antibody clone F6 (antibody, IgG1, V domains shown)
VH: QVQLQQSGPGLVKPPQTLSLTCAISGDSVSSNSAAWNWIRQSPSRGLEWLGRTYYRSKWYNDYAVSVKSRITINPDTSKNQFSLQLNSVTPEDTAVYYCARDPYYYDSSGYYYFDAFDIWGQGTMVTVSS
VL: SYELTQPHSVSVAPGQTARITCGGDNIGSKSVHWYQQRPGQAPVLVVYDDSDRPSGIPERFSGSNSENTATLTISGVEAGDEADYYCQVWDSTSHHVVFGGGTKLTVL
notes: Fully human mAb formatted as full-length IgG1; also called F6 mAb
